Experimental data published in patent EP0117176A1, “Zinc salt of L-thiazolidine-4-carboxylic acid, its preparation, compositions containing it and its use” (PIERRE FABRE S.A., priority 1983, dated 1984).
At least one read-out could not be matched to a standard name with certainty.

Experiment: Solubility
Format: physicochemical
Conditions: dans l'eau
Text: Solubilité : Soluble dans l'eau à 1 %. Insoluble dans les solvants organiques.

L-thiazolidine-4 carboxylate de zinc
Solubilité: 1%
